These are yes or no findings as the source states them, for the method shown. Binding calls can cover weak binding; strength is not graded here. Tags and fused reporters may be left off the sequences shown.
Columns and labels:
Experiment in all cases: two-hybrid; Matchmaker two-hybrid system (Takara); TCP-BD and ATHB-AD; dilutions of yeast spotted on medium with or without histidine
[1] = molecular target: T1, TCP13 fused to BD (yeast two-hybrid) (Arabidopsis thaliana) (UniProt Q9S7W5)
T1 sequence: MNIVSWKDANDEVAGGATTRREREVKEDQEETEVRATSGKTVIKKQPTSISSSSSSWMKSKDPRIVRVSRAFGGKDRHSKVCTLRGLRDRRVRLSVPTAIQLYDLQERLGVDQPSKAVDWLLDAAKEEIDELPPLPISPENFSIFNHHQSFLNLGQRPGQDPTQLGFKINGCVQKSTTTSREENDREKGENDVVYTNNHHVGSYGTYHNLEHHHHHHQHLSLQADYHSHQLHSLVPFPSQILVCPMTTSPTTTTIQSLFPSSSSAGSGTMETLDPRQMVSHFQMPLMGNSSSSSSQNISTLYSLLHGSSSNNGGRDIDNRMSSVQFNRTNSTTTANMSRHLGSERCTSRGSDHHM

[2] = molecular target: T2, TCP17 fused to BD (yeast two-hybrid) (Arabidopsis thaliana) (UniProt Q9LEZ9)
T2 sequence: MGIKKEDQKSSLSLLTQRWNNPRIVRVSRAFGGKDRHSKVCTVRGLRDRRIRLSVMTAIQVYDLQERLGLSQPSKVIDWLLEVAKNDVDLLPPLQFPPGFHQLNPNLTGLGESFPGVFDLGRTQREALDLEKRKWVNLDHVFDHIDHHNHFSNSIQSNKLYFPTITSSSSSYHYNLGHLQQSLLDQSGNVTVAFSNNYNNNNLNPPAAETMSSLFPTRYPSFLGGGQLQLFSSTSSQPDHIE

[3] = molecular target: T3, TCP5 fused to BD (yeast two-hybrid) (Arabidopsis thaliana) (UniProt Q9FME3)
T3 sequence: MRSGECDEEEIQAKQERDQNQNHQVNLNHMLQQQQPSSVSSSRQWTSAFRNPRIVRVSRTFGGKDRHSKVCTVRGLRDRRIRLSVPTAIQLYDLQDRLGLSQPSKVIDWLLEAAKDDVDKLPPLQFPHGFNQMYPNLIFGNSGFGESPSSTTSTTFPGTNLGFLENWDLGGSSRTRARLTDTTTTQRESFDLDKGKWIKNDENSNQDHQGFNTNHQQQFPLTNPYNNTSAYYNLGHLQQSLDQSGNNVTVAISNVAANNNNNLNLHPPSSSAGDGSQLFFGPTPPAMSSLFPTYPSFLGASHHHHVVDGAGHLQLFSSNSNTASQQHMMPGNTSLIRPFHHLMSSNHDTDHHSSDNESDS

Measured: binding

ATHB2 C-terminal region fused to AD (yeast two-hybrid) (Arabidopsis thaliana) (domain or fragment)
binds: all assays above
